The subject of the experiment is L1210 leukemia ip in BDF1 mice, survival T/C. The experiment is described as follows: NCI In Vivo Anticancer Drug Screen. Data for tumor model L1210 Leukemia (intraperitoneal) in B6D2F1 (BDF1) mice. Conditions: T/C endpoint: mean survival time, higher T/C = longer survival.
The mark [1] stands for this setting: dose: 400.0 mg/kg/injection, schedule: Q04DX003 (ip), vehicle: saline.
Setting [2] is: dose: 400.0 mg/kg/injection, schedule: Q01DX001 (ip), vehicle: saline.
Setting [3] is: dose: 400.0 mg/kg/injection, schedule: Q01DX009 (ip), vehicle: Klucel (hydroxypropylcellulose) (HPC).
Setting [4] is: dose: 100.0 mg/kg/injection, schedule: Q04DX003 (ip), vehicle: saline with Tween-80.
[5] abbreviates: dose: 200.0 mg/kg/injection, schedule: Q04DX003 (ip), vehicle: saline with Tween-80.
Setting [6] is: dose: 400.0 mg/kg/injection, schedule: Q04DX003 (ip), vehicle: saline with Tween-80.
Setting [7] is: dose: 200.0 mg/kg/injection, schedule: Q01DX009 (ip), vehicle: Klucel (hydroxypropylcellulose) (HPC).
The mark [8] stands for this setting: dose: 300.0 mg/kg/injection, schedule: Q01DX001 (ip), vehicle: saline.
The mark [9] stands for this setting: dose: 100.0 mg/kg/injection, schedule: Q01DX009 (ip), vehicle: Klucel (hydroxypropylcellulose) (HPC).
Setting [10] is: dose: 200.0 mg/kg/injection, schedule: Q04DX003 (ip), vehicle: Klucel (hydroxypropylcellulose) (HPC).
[11] abbreviates: dose: 400.0 mg/kg/injection, schedule: Q04DX003 (ip), vehicle: Klucel (hydroxypropylcellulose) (HPC).

The list does not hold the whole screen: it is rich in T/C values a quarter to a half above the control, in often repeated tests (any T/C) and in doses without a T/C. Other doses and runs of a compound stand elsewhere. T/C gives the treated animals as a percentage of the vehicle group. Some doses have a count of surviving animals in place of a T/C: the source holds a T/C of zero for them, seemingly a mark for toxic or unscored doses. Some doses without a T/C left all or most animals alive at the check, yet need not have been tolerated: the source hardly ever lists a survival T/C far under the control, and the zero likely stands for such cases as well. Survivors were counted at the toxicity check, usually on the fifth day, unless a day is given; later deaths do not show. Schedule codes are those of the source, taken here to give the interval after Q, in days (D) or hours (H), and the number of doses after X. Some entries hold several experiments; the values are given in rising order. Some schedules carry Z or #; the key to these is not given. Where survival is the endpoint, the PubChem record calls one and a half times the control and up active, and a quarter to a half above the control has no call in these data; cut-offs in other NCI protocols can differ. Some T/C values are followed by the survivors on the day toxicity was checked, most often the fifth; without a count, all were alive then.

For `O=[N+]([O-])C(CO)(CO)CC(F)(F)F`, the survivor count is on record as 0 of 6 (dose: 100.0 mg/kg/injection, schedule: Q04DX003 (ip), vehicle: saline); 0 of 6 (dose: 200.0 mg/kg/injection, schedule: Q04DX003 (ip), vehicle: saline); 0 of 6 under setting [1].
Turning to `CC(C)(C)NN`, the survivor count is given as 0 of 4 (dose: 200.0 mg/kg/injection, schedule: Q01DX001 (ip), vehicle: saline) and 0 of 4 under setting [2].
For `CCCCC(CC)CCC(=O)CC(C)C` (stereo not given), the survivor count under setting [3] is 4 of 6.
Regarding `O=C(COc1ccc(Cl)c(Cl)c1)NCc1ccc[n+](Cc2ccc(S(=O)(=O)F)cc2Cl)c1`, the survivor count under setting [4] is reported as 5 of 6, the survivor count under setting [5] is given as 0 of 6 and the survivor count under setting [6] is recorded as 0 of 6.
`CN(C)CCOC(=O)c1cccc(CCl)c1`: for the setting “dose: 100.0 mg/kg/injection, schedule: Q04DX002 (ip), vehicle: saline”, the T/C was 129 % of control.
`CCOC(=O)c1ccc(OC(=O)Nc2ccc(OC)cc2OC)cc1`: the survivor count runs as follows: under setting [7], 6 of 6; under setting [3], 2 of 6.
As for `COCCCN1CC2CCCC1O2` (stereo not given), the survivor count under setting [2] was 2 of 4.
With `NCC(O)(c1ccccc1)c1ccccc1`, the survivor count runs as follows: (dose: 150.0 mg/kg/injection, schedule: Q01DX001 (ip), vehicle: other) 0 of 6; (dose: 300.0 mg/kg/injection, schedule: Q01DX001 (ip), vehicle: other) 0 of 6.
`Cc1cccc(C(=O)NO)c1O`: the survivor count under setting [8] was 0 of 6.
As for `O=[N+]([O-])c1ccc(S(=O)C2CCCCC2Cl)c([N+](=O)[O-])c1` (stereo not given), the survivor count is, setting by setting: under setting [7], 2 of 6; under setting [3], 0 of 6.
In the case of `O=C(O)C(Br)C(Br)C(=O)Nc1ccc(F)cc1` (stereo not given), under “dose: 400.0 mg/kg/injection, schedule: Q04DX002 (ip), vehicle: saline with Tween-80”, the survivor count is 1 of 3.
In the case of `Cn1c(CC(O)(C(F)(F)F)C(F)(F)F)c(C(O)(C(F)(F)F)C(F)(F)F)c2ccccc21`, the survivor count (dose: 20.0 mg/kg/injection, schedule: Q01DX009 (ip), vehicle: saline with Tween-80) is given as 1 of 6; the survivor count under setting [4] is reported as 0 of 6; the survivor count under setting [5] is on record as 0 of 6; the survivor count under setting [6] is reported as 0 of 6.
In the case of `CC(C)=CCC(CCN1CCCCC1)(C(N)=O)c1cccc2ccccc12` (stereo not given), the survivor count is listed as 0 of 6 under setting [9], 0 of 6 under setting [7] and 0 of 6 under setting [3].
On to `CC(=O)N(C)C1=C(Sc2ccc(C)cc2)C(=O)c2ccccc2C1=O`, for which the survivor count is on record as 6 of 6 (dose: 75.0 mg/kg/injection, schedule: Q01DX001 (ip), vehicle: carboxymethylcellulose (CMC)) and 4 of 6 (dose: 300.0 mg/kg/injection, schedule: Q01DX001 (ip), vehicle: carboxymethylcellulose (CMC)).
As for `Cc1ccc(N2CCN(CCCN3CCN(c4ccc(Cl)cc4)CC3)CC2)cc1`, the survivor count under setting [10] is reported as 5 of 6 and the survivor count under setting [11] is given as 5 of 6.
Turning to `COc1ccccc1-n1c(O)c(N=Nc2ccc(Cl)cc2)c(=O)n(-c2ccc(Cl)cc2)c1=S`, for the setting “dose: 400.0 mg/kg/injection, schedule: Q01DX001 (ip), vehicle: Klucel (hydroxypropylcellulose) (HPC)”, the survivor count is listed as 2 of 6.
Take `CCOC(=O)N/N=C(/C)OCC`: the survivor count under setting [1] is 5 of 6.
For `CC1(C)C(=O)N(Cl)C(=O)N1Cl`, the survivor count (dose: 12.5 mg/kg/injection, schedule: Q01DX009 (ip), vehicle: Klucel (hydroxypropylcellulose) (HPC)) was 3 of 3 and 6 of 6; the survivor count (dose: 50.0 mg/kg/injection, schedule: Q01DX001 (ip), vehicle: Klucel (hydroxypropylcellulose) (HPC)) is 3 of 6; the survivor count (dose: 50.0 mg/kg/injection, schedule: Q01DX009 (ip), vehicle: Klucel (hydroxypropylcellulose) (HPC)) is 0 of 3; the survivor count (dose: 50.0 mg/kg/injection, schedule: Q04DX002 (ip), vehicle: Klucel (hydroxypropylcellulose) (HPC)) was 3 of 3; the survivor count (dose: 100.0 mg/kg/injection, schedule: Q01DX001 (ip), vehicle: Klucel (hydroxypropylcellulose) (HPC)) is 0 of 6; the survivor count (dose: 100.0 mg/kg/injection, schedule: Q04DX002 (ip), vehicle: Klucel (hydroxypropylcellulose) (HPC)) was 0 of 3. The survivor count by setting is: (dose: 200.0 mg/kg/injection, schedule: Q01DX001 (ip), vehicle: Klucel (hydroxypropylcellulose) (HPC)) 0 of 6; (dose: 200.0 mg/kg/injection, schedule: Q04DX002 (ip), vehicle: Klucel (hydroxypropylcellulose) (HPC)) 0 of 3; (dose: 400.0 mg/kg/injection, schedule: Q04DX002 (ip), vehicle: Klucel (hydroxypropylcellulose) (HPC)) 0 of 3.
`CSc1ncnc2c1ncn2C1OC(CO)C(O)OC1O` (stereo not given): the T/C (dose: 16.0 mg/kg/injection, schedule: Q01DX009 (ip), vehicle: saline) was 125 % of control; the T/C (dose: 27.0 mg/kg/injection, schedule: Q01DX009 (ip), vehicle: saline) was 125 % of control; the T/C (dose: 42.0 mg/kg/injection, schedule: Q01DX009 (ip), vehicle: saline) was 137 % of control; the T/C (dose: 100.0 mg/kg/injection, schedule: Q01DX001 (ip), vehicle: saline, evaluated on day 30) is 116 and 122 % of control; the T/C (dose: 100.0 mg/kg/injection, schedule: Q01DX001 (ip), vehicle: saline, run until all animals had died) is 117 and 132 % of control; the T/C (dose: 150.0 mg/kg/injection, schedule: Q01DX001 (ip), vehicle: saline) is 130 % of control [5 of 6 alive]. In addition, the T/C is, setting by setting: (dose: 200.0 mg/kg/injection, schedule: Q01DX001 (ip), vehicle: saline, evaluated on day 30) 130 % of control; (dose: 200.0 mg/kg/injection, schedule: Q01DX001 (ip), vehicle: saline, run until all animals had died) 138 % of control [4 of 6 alive]. Further, the survivor count under setting [10] is listed as 2 of 6; the survivor count under setting [2] was 0 of 4 and 0 of 6.
Turning to `O=C(Nc1ccccc1F)c1ccc(Cl)c(Cl)c1`, under setting [9], the survivor count was 6 of 6.
Take `CN(C)N=Nc1ccc(Cl)cc1C(N)=O`: the T/C (dose: 400.0 mg/kg/injection, schedule: Q01DX009 (ip), vehicle: saline with Tween-80) was 146 % of control [5 of 6 alive].
On to `COC(=O)C1=C(C(=O)OC)C2C=CC1C1(C)C(=O)N(C)C21C` (stereo not given), for which the survivor count (dose: 150.0 mg/kg/injection, schedule: Q04DX002 (ip), vehicle: Klucel (hydroxypropylcellulose) (HPC)) is 3 of 3.
Take `C=CCc1ccc(OCCOCCN(CC=C(C)C)CC=C(C)C)c(OC)c1`: the survivor count is, setting by setting: (dose: 100.0 mg/kg/injection, schedule: Q04DX003 (ip), vehicle: Klucel (hydroxypropylcellulose) (HPC)) 3 of 6; under setting [10], 0 of 6; under setting [11], 0 of 6.
Turning to `CCOC(=O)c1ccc(NCCC(=O)CBr)cc1`, the survivor count is 2 of 4 (dose: 80.0 mg/kg/injection, schedule: Q01DX001 (ip), vehicle: carboxymethylcellulose (CMC)); 0 of 4 (dose: 100.0 mg/kg/injection, schedule: Q01DX001 (ip), vehicle: carboxymethylcellulose (CMC)); 1 of 4 (dose: 200.0 mg/kg/injection, schedule: Q01DX001 (ip), vehicle: carboxymethylcellulose (CMC)); 0 of 4 (dose: 400.0 mg/kg/injection, schedule: Q01DX001 (ip), vehicle: carboxymethylcellulose (CMC)).
On to `O=C(COc1ccc(Cl)cc1Cl)Nc1cccnc1`, for which, under setting [6], the survivor count is listed as 1 of 6.
`CCOc1ccc(NC(=O)Nc2cccc(Cl)c2)cc1`: the survivor count under setting [7] was 3 of 6.
In the case of `C=CC1(C)CCC2C(=CCC3C(C)(COC4OC(CO)C(O)C(O)C4O)C(O)CCC23C)C1` (stereo not given), under setting [8], the survivor count is given as 0 of 6.
For `CCc1c(CC(=O)O)c2cc(C)ccc2n1Cc1ccc(Cl)cc1`, the survivor count (dose: 81.0 mg/kg/injection, schedule: Q01DX Z (ip), vehicle: carboxymethylcellulose (CMC)) was 5 of 6.

(Values after PubChem BioAssay AID248 (DTP/NCI, 2004).)
